Data published in PubChem BioAssay AID1117319 (Southern Research Institute, 2015).
About 1,500 (0.58%) of roughly 260,000 compounds were called active. This list was built around the results that the source calls inconclusive (neither active nor inactive); the mix of calls is not that of the screen.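 The calls were made as follows: active = inhibition above a set limit at one or more doses, reproduced on every date tested; inconclusive = results disagree between test dates, or hit never tested in dose response; inactive = the rest.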

The chains behind the UniProt entries cited, without tags or fusion partners. Where a name states a change or a piece, a line headed by the entry shows the natural chain unless it says otherwise.
UniProt P69720: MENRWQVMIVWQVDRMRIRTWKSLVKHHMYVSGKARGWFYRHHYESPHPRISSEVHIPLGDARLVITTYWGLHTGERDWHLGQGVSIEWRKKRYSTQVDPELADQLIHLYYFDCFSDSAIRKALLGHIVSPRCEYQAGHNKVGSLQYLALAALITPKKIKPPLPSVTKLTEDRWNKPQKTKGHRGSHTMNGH
UniProt P69721: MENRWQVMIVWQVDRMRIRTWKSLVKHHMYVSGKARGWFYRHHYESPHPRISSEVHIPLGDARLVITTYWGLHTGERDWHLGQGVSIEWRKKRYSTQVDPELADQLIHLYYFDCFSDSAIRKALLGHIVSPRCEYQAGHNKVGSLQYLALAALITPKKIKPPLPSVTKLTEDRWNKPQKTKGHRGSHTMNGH
UniProt P69722: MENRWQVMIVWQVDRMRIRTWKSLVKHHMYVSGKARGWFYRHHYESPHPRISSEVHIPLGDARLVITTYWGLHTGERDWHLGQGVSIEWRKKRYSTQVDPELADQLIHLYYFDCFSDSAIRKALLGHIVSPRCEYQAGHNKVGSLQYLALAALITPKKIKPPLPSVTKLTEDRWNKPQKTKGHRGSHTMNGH
UniProt P69723: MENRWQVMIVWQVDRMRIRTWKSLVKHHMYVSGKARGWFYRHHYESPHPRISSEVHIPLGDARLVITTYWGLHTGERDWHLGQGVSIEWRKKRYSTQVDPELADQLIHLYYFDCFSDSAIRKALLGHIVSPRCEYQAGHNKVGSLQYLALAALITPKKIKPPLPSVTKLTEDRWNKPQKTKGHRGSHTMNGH
UniProt Q9HC16: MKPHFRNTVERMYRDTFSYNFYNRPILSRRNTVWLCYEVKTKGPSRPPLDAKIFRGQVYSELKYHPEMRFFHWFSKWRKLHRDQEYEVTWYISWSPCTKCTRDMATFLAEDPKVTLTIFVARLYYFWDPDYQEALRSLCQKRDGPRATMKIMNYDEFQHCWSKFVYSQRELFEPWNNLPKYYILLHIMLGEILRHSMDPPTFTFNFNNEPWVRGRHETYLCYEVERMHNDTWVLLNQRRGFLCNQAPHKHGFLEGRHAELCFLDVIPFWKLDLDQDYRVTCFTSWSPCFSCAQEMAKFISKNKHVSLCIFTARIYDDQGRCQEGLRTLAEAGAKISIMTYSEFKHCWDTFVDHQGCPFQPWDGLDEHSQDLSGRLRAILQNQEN

What follows are compounds tested against Virion infectivity factor (Human immunodeficiency virus type 1 group M subtype B (isolate BH10)) + Virion infectivity factor (Human immunodeficiency virus type 1 group M subtype B (isolate BRU/LAI)) + Virion infectivity factor (Human immunodeficiency virus type 1 group M subtype B (isolate PCV12)) + Virion infectivity factor (Human immunodeficiency virus type 1 group M subtype B (isolate HXB2)) + DNA dC->dU-editing enzyme APOBEC-3G (Homo sapiens) (UniProt P69720+P69721+P69722+P69723+Q9HC16) (assay: inhibitors of Vif binding to APOBEC3G peptide, primary screen, biochemical, TR-FRET, GST-Vif 1-94, biotin-A3G peptide, dose response retest (AID 1117319;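 also: Vif residues 1-94 fused to GST binding biotinylated APOBEC3G peptide 110-148; 0% = full assay without inhibitor and 100% = GST in place of GST-Vif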)). Conditions: active compounds read high.
`COc1ccccc1N1CCN(C(CNS(=O)(=O)c2ccc(C)cc2)c2cccnc2)CC1` (centres undefined) was tested, and the inhibition was inconclusive: 58.4%.
`CC1CCc2c(sc(NC(=O)CSc3nnc(-c4ccccc4)o3)c2C#N)C1` (centres undefined) was tested, and the inhibition was inconclusive: 47%.
For `CCOc1cc(/C=N/NC(=O)c2cccnc2)ccc1OCC(N)=O`, the inhibition was inconclusive: 50.4%.
In the case of `COc1cc(C(=S)N2CCOCC2)ccc1OS(=O)(=O)c1ccc(C)cc1`, the inhibition is reported as inconclusive: 38.2%.
`O=C(CSc1nccc(=O)[nH]1)c1cc2ccccc2o1` was tested, and the inhibition was inconclusive: 36.5%.
In the case of `COc1ccccc1CCNC(=O)c1ccc(Br)s1`, the inhibition is reported as inconclusive: 33.1%.
With `CCOC(=O)c1c(NC(=S)Nc2ccccc2)sc2c1CCN(CC)C2` the inhibition was inconclusive: 51.9%.
For `CCN1CCN(Cc2c(O)ccc3c2O/C(=C\c2ccccc2)C3=O)CC1`, the inhibition was inactive: -1.46%.
With `c1ccc(-c2nnc(OCc3cccnc3)c3ccccc23)cc1` the inhibition was inconclusive: 48.4%.
In the case of `O=C(Nc1nc2nc(-c3ccccc3)cc(=O)n2[nH]1)c1ccccc1`, the inhibition is reported as inconclusive: 44.8%.
In the case of `Cc1oc(-c2ccccc2Cl)nc1CSCC(=O)N1CCCC1`, the inhibition is reported as inconclusive: 58.3%.
`CCOC(=O)CSc1nc(C(C)C)nc2sc(C)c(C)c12` was tested, and the inhibition was inconclusive: 49.4%.
`CC(C)(C)NC(=O)/C(=C/c1ccco1)c1ccccc1` was tested, and the inhibition was inconclusive: 70.8%.
With `COC(=O)c1c(S(N)(=O)=O)c2ccccc2n1C` the inhibition was inconclusive: 34.2%.
For `COc1cc(CC(=O)OCC(=O)Nc2ccc([N+](=O)[O-])cc2)cc(OC)c1OC`, the inhibition was inactive: 31.8%.
`Cc1oc(-c2cccc(Cl)c2)nc1CN1CCC(C(=O)N2CCN(c3ccccn3)CC2)CC1` was tested, and the inhibition was inactive: 6.2%.
For `COC(=O)c1ccc(CSc2nc(C)nc3c2c(=O)n(C)c(=O)n3C)o1`, the inhibition was inconclusive: 62.8%.
`CCN(CC)C(=O)C(=O)c1ccn(-c2c(C)csc2C(=O)OC)c1` was tested, and the inhibition was inconclusive: 58%.
For `CCOC(=O)C1(Cc2cccc(OC)c2)CCN(Cc2ccc(C)s2)CC1`, the inhibition was inactive: 11.4%.
In the case of `CCN(c1cccc(C)c1)S(=O)(=O)c1ccc(-n2cccn2)cc1`, the inhibition is reported as inconclusive: 41.9%.
In the case of `CCn1cc([N+](=O)[O-])c(C(=O)Nc2ccc(Br)cn2)n1`, the inhibition is reported as inconclusive: 38%.
With `c1csc(Cc2nn3c(-c4ccncc4)nnc3s2)c1` the inhibition was inconclusive: 48.6%.
With `CC(/C=N/n1cnnc1)=C\c1ccco1` the inhibition was inconclusive: 41.8%.
For `CC(=O)NC(Cc1ccccc1)C(=O)N1CCN(C(=O)c2cccs2)CC1` (centres undefined), the inhibition was inconclusive: 41.9%.
For `CC(=O)N1CCc2cc(NS(=O)(=O)c3cccs3)ccc21`, the inhibition was inconclusive: 62.7%.
`CC(=O)C1=C(C)NC(=O)NC1c1cc(Br)ccc1OCC(N)=O` (centres undefined) was tested, and the inhibition was inconclusive: 35.7%.
With `CCc1ccc(C(=O)NC2CCCCC2)s1` the inhibition was inconclusive: 47.1%.
In the case of `CCOCCCNC(=S)Nc1ccc(Br)cc1Cl`, the inhibition is reported as inconclusive: 36.6%.
With `Cc1cc(C)c2c(c1)/C(=N\N=c1\sc3ccccc3n1C)C(=O)N2` the inhibition was inactive: 0.52%.
In the case of `COc1cc(S(=O)(=O)Nc2cccnc2)ccc1Cl`, the inhibition is reported as inconclusive: 43.5%.
For `Cc1ccccc1C1=NC(c2ccc(F)cc2F)ON1` (centres undefined), the inhibition was inconclusive: 17.2%.
With `CCOc1ccccc1N1CCN(Cc2ccco2)CC1` the inhibition was inactive: 0.19%.
With `COc1ccc(-n2c(=S)[nH]c3cc(C(=O)NCc4cccnc4)ccc3c2=O)cc1` the inhibition was inactive: -1.63%.
`CCCCS(=O)(=O)Nc1ccc2c(c1)ncn2C1CCCCC1` was tested, and the inhibition was inconclusive: 58.5%.
For `Cc1ccc(S(=O)(=O)NC2=NCN(Cc3ccccc3)CN2)cc1`, the inhibition was inconclusive: 23.3%.
With `Cc1ccc(C)n1C(Cc1ccccc1)C(=O)O` (centres undefined) the inhibition was inconclusive: 38.7%.
For `CSc1ccc2c(c1)N(CCC1CCCCN1C)c1ccccc1S2` (centres undefined), the inhibition was inconclusive: 36.8%.
With `O=C(O)C1=C(C(=O)Nc2cc(C(F)(F)F)ccc2Cl)CCCC1` the inhibition was inconclusive: 44.1%.
`CC(C)C(NC(=O)c1ccc(C(C)(C)C)cc1)C(=O)NCC1(N(C)C)CCCCC1` (centres undefined) was tested, and the inhibition was inconclusive: 48.1%.
With `CCOc1ccc(NS(=O)(=O)c2ccc(C(=O)N3CC(C)OC(C)C3)cc2)cc1` (centres undefined) the inhibition was inconclusive: 50.6%.
`CC(C)N1CCC(N2CCN(Cc3ccc(C#CC(C)(C)O)s3)CC2CCO)CC1` (centres undefined) was tested, and the inhibition was inconclusive: 42.9%.
In the case of `O=C(CNC(=O)c1ccco1)N/N=C/c1ccc(O)c([N+](=O)[O-])c1`, the inhibition is reported as inconclusive: 40.5%.
`CC1(C)Cc2c(sc3nc(C4CC4)n(N)c(=O)c23)CO1` was tested, and the inhibition was inconclusive: 53.1%.
In the case of `COC(=O)c1cc(NC(=O)COC(=O)CCc2c[nH]c3ccccc23)cc(C(=O)OC)c1`, the inhibition is reported as inactive: 2.64%.
`COc1ccc(-n2c(C)c3c(OC)cccc(=O)c3c2C)cc1` was tested, and the inhibition was inactive: 32.9%.
For `COC(=O)c1nnn(-c2nonc2N)c1-c1cccs1`, the inhibition was inconclusive: 34.8%.
For `Cc1cc(-c2ccccc2)nnc1NCCN1CCOCC1`, the inhibition was inconclusive: 38.2%.
For `Cc1c(C(=O)N2CCOCC2)[nH]c2c1C(=O)CC(c1ccccc1Cl)C2` (centres undefined), the inhibition was inconclusive: 35.8%.
For `Cc1noc2ncnc(Oc3ccccc3)c12`, the inhibition was inconclusive: 34.2%.
For `NC(N)=Nc1nc(CSCC/C(N)=N/S(N)(=O)=O)cs1`, the inhibition was inconclusive: 50.8%.
For `Cc1ccc(S(=O)(=O)NNC(=O)c2snnc2C)cc1`, the inhibition was inconclusive: 34.3%.
For `NC(=O)CSc1oc(-c2ccc(F)cc2)nc1S(=O)(=O)c1ccccc1`, the inhibition was inconclusive: 59.8%.
In the case of `CC1CCCCC1NC(=O)CSc1nnc(COc2ccc(Cl)cc2)o1` (centres undefined), the inhibition is reported as inactive: 3.41%.
For `Cc1cc(C(=O)NCCC(C)C)c2ccccc2n1`, the inhibition was inconclusive: 34.4%.
In the case of `COc1cccc(C(=O)Nc2ccc3[nH]c(=O)[nH]c3c2)c1OC`, the inhibition is reported as inconclusive: 33.6%.
`COc1cccc(NC(=O)c2ccc(CN3CCN(c4ccccc4)CC3)cc2)c1` was tested, and the inhibition was inconclusive: 35.2%.
`COc1ccccc1C(=O)C1CCCN(Cc2cn[nH]c2C2CCCCC2)C1` (centres undefined) was tested, and the inhibition was inconclusive: 41.7%.
With `O=[N+]([O-])c1ccc(Cl)c(-c2ccc(/C=N/c3c(-c4ccco4)nc4ccccn34)o2)c1` the inhibition was inconclusive: 49.1%.
`OCCNCc1cc(Br)ccc1OCc1ccccc1` was tested, and the inhibition was inconclusive: 62.7%.
